By UniProt entry, the sequences of proteins in these tests, tags left out. Where a name states a change or a piece, a line headed by the entry shows the natural chain unless it says otherwise.
UniProt Q15554: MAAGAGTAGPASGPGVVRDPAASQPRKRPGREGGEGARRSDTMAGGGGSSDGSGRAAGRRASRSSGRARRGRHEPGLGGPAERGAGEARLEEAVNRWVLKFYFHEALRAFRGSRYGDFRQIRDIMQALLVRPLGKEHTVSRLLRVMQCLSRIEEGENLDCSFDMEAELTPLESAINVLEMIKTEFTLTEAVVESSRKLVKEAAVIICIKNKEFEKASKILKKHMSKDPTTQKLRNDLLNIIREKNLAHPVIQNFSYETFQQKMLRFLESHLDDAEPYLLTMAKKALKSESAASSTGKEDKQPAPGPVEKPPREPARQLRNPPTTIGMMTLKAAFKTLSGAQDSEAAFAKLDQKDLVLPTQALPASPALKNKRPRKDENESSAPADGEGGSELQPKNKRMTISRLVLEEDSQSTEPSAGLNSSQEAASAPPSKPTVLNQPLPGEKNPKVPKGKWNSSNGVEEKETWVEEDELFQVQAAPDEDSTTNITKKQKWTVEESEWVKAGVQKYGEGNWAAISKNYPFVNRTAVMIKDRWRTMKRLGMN
UniProt P35637: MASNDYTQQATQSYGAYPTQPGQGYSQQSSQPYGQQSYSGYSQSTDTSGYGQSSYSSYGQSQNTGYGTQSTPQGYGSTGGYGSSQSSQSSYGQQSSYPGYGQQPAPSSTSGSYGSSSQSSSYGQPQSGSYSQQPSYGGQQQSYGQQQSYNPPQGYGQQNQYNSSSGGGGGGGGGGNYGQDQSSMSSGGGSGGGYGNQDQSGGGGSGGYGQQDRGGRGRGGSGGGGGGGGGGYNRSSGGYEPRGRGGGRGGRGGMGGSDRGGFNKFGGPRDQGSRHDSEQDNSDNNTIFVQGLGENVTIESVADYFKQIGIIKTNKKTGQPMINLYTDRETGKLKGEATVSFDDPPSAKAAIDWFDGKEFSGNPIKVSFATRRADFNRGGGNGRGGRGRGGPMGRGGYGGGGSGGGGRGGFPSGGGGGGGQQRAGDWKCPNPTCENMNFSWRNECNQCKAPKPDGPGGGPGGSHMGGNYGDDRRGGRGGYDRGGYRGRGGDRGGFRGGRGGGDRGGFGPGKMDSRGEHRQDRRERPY
UniProt Q99729: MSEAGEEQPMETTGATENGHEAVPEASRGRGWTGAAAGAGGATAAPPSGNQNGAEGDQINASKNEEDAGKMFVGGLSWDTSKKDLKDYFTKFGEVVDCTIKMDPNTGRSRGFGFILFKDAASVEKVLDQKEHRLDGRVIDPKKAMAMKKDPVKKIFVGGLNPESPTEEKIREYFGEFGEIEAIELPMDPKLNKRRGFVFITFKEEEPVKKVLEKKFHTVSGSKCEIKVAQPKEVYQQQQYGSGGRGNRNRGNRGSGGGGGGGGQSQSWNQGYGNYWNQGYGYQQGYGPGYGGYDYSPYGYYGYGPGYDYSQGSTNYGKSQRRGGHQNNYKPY

According to article PMC8192922:

Tests used:
Assay in all cases: affinity purification with mass spectrometry; pulldowns of endogenous BRCA1 and TRF2 from chromatin fractions of HME cells (inducible shScramble or shBRCA1), on-bead trypsin digest, nanoLC-MS; IgG background subtracted
[1] = biological target: TRF2 (human (endogenous in HeLa, HME and T98G)) (UniProt Q15554)
[2] = biological target: BRCA1 (human (endogenous in HeLa, HME and T98G)) (UniProt P38398)
[3] = biological target: BRCA1 (human (endogenous in HeLa, HME and T98G)), P38398; conditions: remark: other sources report otherwise

FUS (from UniProt P35637 1-526)
binding [1]: binds | binding [2]: binds

hnRNPAB (from UniProt Q99729 1-332)
binding [1]: binds | binding [2]: binds

B1: XRN2, Q9H0D6 1-950 (protein)
chain: MGVPAFFRWLSRKYPSIIVNCVEEKPKECNGVKIPVDASKPNPNDVEFDNLYLDMNGIIHPCTHPEDKPAPKNEDEMMVAIFEYIDRLFSIVRPRRLLYMAIDGVAPRAKMNQQRSRRFRASKEGMEAAVEKQRVREEILAKGGFLPPEEIKERFDSNCITPGTEFMDNLAKCLRYYIADRLNNDPGWKNLTVILSDASAPGEGEHKIMDYIRRQRAQPNHDPNTHHCLCGADADLIMLGLATHEPNFTIIREEFKPNKPKPCGLCNQFGHEVKDCEGLPREKKGKHDELADSLPCAEGEFIFLRLNVLREYLERELTMASLPFTFDVERSIDDWVFMCFFVGNDFLPHLPSLEIRENAIDRLVNIYKNVVHKTGGYLTESGYVNLQRVQMIMLAVGEVEDSIFKKRKDDEDSFRRRQKEKRKRMKRDQPAFTPSGILTPHALGSRNSPGSQVASNPRQAAYEMRMQNNSSPSISPNTSFTSDGSPSPLGGIKRKAEDSDSEPEPEDNVRLWEAGWKQRYYKNKFDVDAADEKFRRKVVQSYVEGLCWVLRYYYQGCASWKWYYPFHYAPFASDFEGIADMPSDFEKGTKPFKPLEQLMGVFPAASGNFLPPSWRKLMSDPDSSIIDFYPEDFAIDLNGKKYAWQGVALLPFVDERRLRAALEEVYPDLTPEETRRNSLGGDVLFVGKHHPLHDFILELYQTGSTEPVEVPPELCHGIQGKFSLDEEAILPDQIVCSPVPMLRDLTQNTVVSINFKDPQFAEDYIFKAVMLPGARKPAAVLKPSDWEKSSNGRQWKPQLGFNRDRRPVHLDQAAFRTLGHVMPRGSGTGIYSNAAPPPVTYQGNLYRPLLRGQAQIPKLMSNMRPQDSWRGPPPLFQQQRFDRGVGAEPLLPWNRMLQTQNAAFQPNQYQMLAGPGGYPPRRDDRGGRQGYPREGRKYPLPPPSGRYNWN
binding [3]: binds

These are yes or no findings as the source states them, for the method shown. Binding seen in cells or lysates may run through a third protein. A yes stands for co-enrichment or nearness to the bait. Other partners may have been found.
